Experiment: competition binding assay for cardiolipin with fluorescent probe I and CL-DOPC liposomes (25:75 mol %)
Details: for relative binding affinity for CL within the studied set (in words): comparison of EC50 values; for EC50: 20 mM HEPES buffer, 2.5 μM CL, 5 μM I, means ± S.D. from 3 independent experiments

- relative binding affinity for CL within the studied set (in words) (20 mM HEPES, listed as Gentamicin): highest affinity for CL
- relative binding affinity for CL within the studied set (in words) (20 mM HEPES, listed as gentamicin): highest
- times lower affinity toward CL than natural ligand cytochrome c (pH 7.4, 20 mM HEPES, FIG. 2C): ≈ 3 times
- EC50 (pH = 6.8): 1010 ± 120 nM
- EC50 (pH = 7.4): 980 ± 140 nM
Structure (SMILES): CNC(C)[C@@H]1CC[C@@H](N)[C@@H](O[C@H]2[C@@H](O)[C@@H](O[C@H]3OC[C@](C)(O)[C@H](NC)[C@@H]3O)[C@H](N)C[C@@H]2N)O1.O=S(=O)(O)O (stereo partly drawn) [Example 8, (2R,3S,4R,5R)-2-(((1S,2R,3R,4S,6R)-4,6-diamino (((2R,3R,6S)-3-amino-6-(1-(methylamino)ethyl)tetrahydro-2H-pyran-2-yl)oxy)-2-hydroxycyclohexyl)oxy)-5-methyl-4-(methylamino)tetrahydro-2H-pyran-3,5-diol sulfate]

— US12625142B2, “Assay for measuring binding affinity for cardiolipin of biologically active compounds” (Latvian Institute of Organic Synthesis, priority 2020, dated 2026)
